From PubChem BioAssay AID504648 (National Center for Advancing Translational Sciences (NCATS), 2011)
Screen size: about 390,000 compounds; about 610 (0.16%) were called active. The inconclusive results got no clear call from the source; some entries with a clear call stand among them for comparison. The call rests on the fitted dose curve; in most records, active means well fitted inhibition curve with a large enough effect; inconclusive means small, poorly fitted or top-dose-only effect, or effect the other way, or another doubt; inactive means no such curve, though single readings can be large or run the other way. Where the call is inconclusive, the potency comes from a doubtful curve fit.

Assay: Nrf2 qHTS screen for inhibitors: counterscreen for cytotoxicity
Details: A549 ARE-Fluc cells, CellTiter-Fluor viability, 18-24 h; activity change, negative = cytotoxicity: at 46 µM (top of the series)
Method in brief: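 Cytotoxicity counterscreen: CellTiter-Fluor fluorescence was measured in A549 ARE_Fluc cells after 18-24 h of compound exposure in a concentration series. The subsequent BugLite luminescent read reports ARE-luciferase activity.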
On the % scale 0 is the no-effect control and ±100 the full control effect; potency means the concentration at half of the fitted maximal effect.

Compound	Potency	activity change, negative = cytotoxicity
COc1cccc([C@@H]2Oc3ccc(Br)cc3C(=O)[C@H]2OC(=O)NC2CCCC2)c1	inconclusive: 23.1 µM [falling, partial curve, poor fit]	
CCn1c(=O)c(C(=O)Nc2nc3ccccc3[nH]2)c(O)c2ccccc21	active: 20.6 µM	
Cc1cc(C)c(S(=O)(=O)n2ccc3ccccc32)c(C)c1		inactive: 6.37%
COc1ccc(C(=O)c2c3ccc([N+](=O)[O-])cc3[n+]([O-])n2CCCN)cc1	inconclusive: 29.1 µM [falling, single point]	
O=C(NC(NC(=S)Nc1ccccc1Cl)C(Cl)(Cl)Cl)c1cccc(Cl)c1 (configuration not stated)	inconclusive: 32.6 µM [falling, single point]	
COCC(=O)N/N=C(\C)CC(=O)NCc1ccco1	inconclusive: 0.103 µM [falling, full curve, poor fit]	
COC(=O)c1ccccc1NC(=O)CC(=O)Nc1ccccc1C(=O)OC		inactive: 16.1%
COc1ccc(C(=O)/C=C/c2ccccc2)c(OC)c1	inconclusive: 29.1 µM [falling, single point]	
O=C(NCc1ccco1)c1cc2cc3ccc(Cl)cc3nc2o1	inconclusive: 29.1 µM [falling, single point]	
O=C(c1cc(Cl)ccc1Cl)N1CCN(c2ccccn2)CC1		inactive: -0.386%
Fc1ccc2[nH]c3c(N4CCN(c5ccccc5)CC4)ncnc3c2c1	inconclusive: 29.1 µM [falling, single point]	
COc1ccccc1N(CC(=O)N/N=C/c1c(O)ccc2ccccc12)S(C)(=O)=O		inactive: 1.71%
COc1ccc(-c2sc3ccc(OC)cc3c2-c2ccc(OC)nc2)cc1	inconclusive: 11.6 µM [activator, partial curve, poor fit]	
COc1cccc(CNC(=O)c2cc3c(=O)n(Cc4cccnc4)ccc3nc2C)c1		inactive: 4.84%
CC(=O)N1CCC(C(=O)Nc2nc(-c3ccccc3)ns2)CC1	inconclusive: 1.16 µM [activator, single point]	
CCN(CC)C(=O)CC(c1ccc(OC)cc1)c1c(OC)cc(OC)c2ccc(=O)oc12 (configuration not stated)	inconclusive: 4.61 µM [falling, partial curve, poor fit]	
COc1cc(C(=O)Oc2c(CN3CCOCC3)cc(Cl)c3cccnc23)cc(OC)c1OC		inactive: -3.61%
COCC(C)NC(=O)CSc1nc2ccccc2n1CCc1ccccc1 (configuration not stated)	inconclusive: 29.1 µM [activator, single point]	
CCCc1cc(=O)oc2c(C)c3c(cc12)CN(CCc1ccc(Cl)cc1)CO3		inactive: -1.06%
CCOc1ccccc1N1CCN(Cc2ccc(OC)c(OC)c2)CC1	inconclusive: 18.4 µM [activator, partial curve, poor fit]	
O=c1c(-c2ccc(Cl)cc2)coc2c(CN3CCCCC3)c(O)ccc12		inactive: -8.04%
Cc1cc(NC(=O)CSc2nc3cc4c(cc3c(=O)n2CCc2ccccc2)OCO4)no1		inactive: -3.06%
CC(C)n1cnc2c(Nc3cccc(Cl)c3)nc(NCCCO)nc21	inconclusive: 32.6 µM [falling, partial curve, poor fit]	

3 compounds from above, sorted by molar mass, rising.
Compound	Potency	activity change, negative = cytotoxicity
COCC(=O)N/N=C(\C)CC(=O)NCc1ccco1	inconclusive: 0.103 µM [falling, full curve, poor fit]	
COc1ccc(C(=O)/C=C/c2ccccc2)c(OC)c1	inconclusive: 29.1 µM [falling, single point]	
Fc1ccc2[nH]c3c(N4CCN(c5ccccc5)CC4)ncnc3c2c1	inconclusive: 29.1 µM [falling, single point]	

The list goes on:

Compound	Potency	activity change, negative = cytotoxicity
N#CC(c1ccc(Cl)cc1)c1ccc2c(C(F)(F)F)cc(C(F)(F)F)nc2n1 (configuration not stated)	active: 5.8 µM	
O=C(/C=C/c1ccco1)Nc1sc2c(c1C(=O)O)CCC2	inconclusive: 15.8 µM [falling, single point]	
COc1ccc(C(C[N+](=O)[O-])c2c(C)cc3ccccn23)c(OC)c1 (configuration not stated)	inconclusive: 16.4 µM [falling, partial curve, poor fit]	
O=C(Nc1cccc(-c2nc3ccccc3o2)c1)c1ccc(N2C(=O)C3C4C=CC(C4)C3C2=O)cc1 (configuration not stated)	inconclusive: 10.3 µM [falling, partial curve, poor fit]	
Cc1sc(NC(=O)CSc2nnnn2C2CCCCC2)c(C#N)c1C	inconclusive: 5.8 µM [falling, single point]	
COc1ccc(-c2nc3sc(CCNC(=O)C(=O)Nc4ccc(C)c(C)c4)c(C)n3n2)cc1		inactive: 4.19%
CCOc1ccccc1CNC(=O)c1cc2c(=O)n(Cc3ccco3)ccc2nc1C		inactive: -1.74%
Cc1cc(C)c(C(=O)/C=C/c2cccc3ccccc23)c(=O)[nH]1	inconclusive: 18.4 µM [falling, single point]	
O=C(NCc1ccco1)C1CC(c2ccc(Cl)c(Cl)c2)=NO1 (configuration not stated)		inactive: 0%
CCN(CC(=O)NCc1ccc(F)cc1)Cc1cc(=O)n2ccsc2n1		inactive: -0.392%
C/C(=N\Nc1ccc(C(=O)c2c(C)cc3ccccn23)cc1[N+](=O)[O-])c1ccc(O)cc1	inconclusive: 6.51 µM [falling, partial curve, poor fit]	
Cc1ccc(C(C(=O)NC2CCCC2)N(C(=O)Cc2cccs2)c2ccc(C)c(C)c2)o1 (configuration not stated)	inconclusive: 16.4 µM [falling, single point]	
O=C(Nc1ccccc1Br)c1cc(S(=O)(=O)NC2CCCCC2)ccc1F	inconclusive: 32.6 µM [activator, single point]	
O=C(Nc1ccc(F)cc1)c1ccc(S(=O)(=O)N2CCOCC2)o1		inactive: -4.23%
CCOc1ccc(NC(=O)Nc2cc3c(cc2N2CCCCC2)n(C)c(=O)n3C)cc1	inconclusive: 32.6 µM [activator, partial curve, poor fit]	
O=C(Nc1cccc2ccccc12)c1ccc([N+](=O)[O-])s1		inactive: 0.963%
COC(=O)Cc1c(C)c2ccc(O)c(CNCc3ccc(OC)c(OC)c3)c2oc1=O	inconclusive: 20.6 µM [activator, single point]	
COC(=O)C1=C(C)N=C2SC(C#N)=C(N)N2C1c1ccc(OC)cc1 (configuration not stated)	inconclusive: 4.61 µM [falling, partial curve, poor fit]	
O=C(Nc1ccc(F)cc1)c1ccc2c(=O)n(CC3CCCO3)c(=S)[nH]c2c1 (configuration not stated)		inactive: -7.25%
CCN(CC)S(=O)(=O)c1cccc(NC(=O)CNc2cccc(S(=O)(=O)N3CCOCC3)c2)c1	inconclusive: 16.4 µM [falling, partial curve, poor fit]	
CCN(C(=S)Nc1cc(S(=O)(=O)N2CCOCC2)ccc1Cl)c1cccc2ccccc12		inactive: 16.8%
O=C(N/N=C/c1ccccc1Cl)c1ccncc1	inconclusive: 5.8 µM [falling, partial curve, poor fit]	
CN(CC#CC1(O)c2ccccc2-c2ccccc21)Cc1ccccc1		inactive: -4.28%

Four records picked at random from those above, as already listed:
Compound	Potency	activity change, negative = cytotoxicity
O=C(Nc1cccc2ccccc12)c1ccc([N+](=O)[O-])s1		inactive: 0.963%
CCn1c(=O)c(C(=O)Nc2nc3ccccc3[nH]2)c(O)c2ccccc21	active: 20.6 µM	
O=C(NCc1ccco1)C1CC(c2ccc(Cl)c(Cl)c2)=NO1 (configuration not stated)		inactive: 0%
O=C(Nc1ccccc1Br)c1cc(S(=O)(=O)NC2CCCCC2)ccc1F	inconclusive: 32.6 µM [activator, single point]	

Continuation.

Compound	Potency	activity change, negative = cytotoxicity
CN(C)CCCN(C(=O)c1ccc(S(=O)(=O)N2CCc3ccccc3C2)cc1)c1nc2ccc(F)cc2s1	inconclusive: 25.9 µM [falling, single point]	
NS(=O)(=O)c1ccc(N/N=C/c2ccc(O)c(O)c2O)c([N+](=O)[O-])c1	inconclusive: 11.6 µM [falling, partial curve, poor fit]	
CN(CC(=O)Nc1ccccc1Cl)C(=O)c1ccc(-c2cccc(C(F)(F)F)c2)o1	inconclusive: 5.17 µM [falling, single point]	
Cc1ccc(F)cc1NC(=O)N1CCN(c2ccnc3cc(Cl)ccc23)CC1		inactive: -16.9%
O=C(O)c1ccccc1N=Cc1c(O)n(-c2nccs2)c(=O)c2ccccc12	inconclusive: 16.4 µM [falling, partial curve, poor fit]	
Cc1c(C(=O)N2CCCC2)oc2c1-c1nn(CC(=O)NC(C)c3ccccc3)cc1CC2 (configuration not stated)		inactive: -4.41%
O=C(NC(=S)Nc1ccccc1C(=O)O)c1ccc(-c2ccc(Br)cc2)o1	inconclusive: 20.6 µM [falling, partial curve, poor fit]	
CC(C)(C)c1cc(C(=O)N/N=C/c2ccc(O)cc2)n(-c2ccccc2)n1	inconclusive: 16.4 µM [falling, single point]	
CCOC(=O)c1c(N2C(=O)C=CC2=O)sc(C)c1C	inconclusive: 20.6 µM [falling, single point]	
COc1ccc(CC(=O)NCC(c2cccs2)S(=O)(=O)c2ccc(Cl)cc2)cc1 (configuration not stated)		inactive: -1.88%
CCc1nc(N2CCCC2)c(C#N)c2c1CCCC2		inactive: 6.9%
Cc1ccccc1OC(=O)c1cccc(S(=O)(=O)N2CCN(C)CC2)c1	inconclusive: 18.4 µM [activator, partial curve, poor fit]	
Cc1cc(C)cc(C(=O)N(C)C2CCCN(Cc3ccccc3F)C2)c1 (configuration not stated)	inconclusive: 23.1 µM [falling, partial curve, poor fit]	
COc1cc(C(=O)NCCc2csc3nc(-c4ccccc4C)nn23)cc(OC)c1OC	inconclusive: 1.64 µM [activator, partial curve, poor fit]	
Cc1ccc(C(=O)CSc2cc(C)nc(SCC(=O)c3ccccc3)n2)cc1	inconclusive: 2.91 µM [falling, partial curve, poor fit]	
O=C(/C=C/Sc1ccc(C(F)(F)F)cn1)c1ccccc1	inconclusive: 29.1 µM [falling, single point]	
CC(C)N(Cc1nc(-c2ccc(Cl)cc2)no1)C(=O)c1cccs1	inconclusive: 20.6 µM [falling, single point]	
COc1ccc(C2C(=O)N(C3CCCCCC3)CC(=O)N2CCc2ccc(OC)c(OC)c2)cc1 (configuration not stated)		inactive: 1.82%
COc1ccc2cc1Oc1ccc(cc1)CC1c3c(cc(OC)c4c3Oc3cc5c(cc3O4)CCNC5C2)CCN1C (configuration not stated)	inconclusive: 29.1 µM [falling, single point]	
CCN(Cc1ccccc1)S(=O)(=O)c1ccc(C(=O)N(CCCN(C)C)c2nc3ccc(F)cc3s2)cc1	inconclusive: 32.6 µM [falling, partial curve, poor fit]	
CCC(C)(C)c1ccc(OCCCC[n+]2ccccc2)c(C(C)(C)CC)c1	inconclusive: 25.9 µM [falling, partial curve, poor fit]	
